Test results from US20130266605A1, “PEPTIDE INHIBITORS OF CD40L SIGNALING AND USES THEREFOR” (PHYLOGICA LIMITED, priority 2010, published 2013).
Substitutions are numbered along the chain they refer to. Results are given in words; binding and its absence hold for the method and conditions named. Some binding calls cover weakened binding; strength is not graded here.

T1: CD40 ligand (UniProt P29965 108-261, limits assumed)
T1 sequence (looked up): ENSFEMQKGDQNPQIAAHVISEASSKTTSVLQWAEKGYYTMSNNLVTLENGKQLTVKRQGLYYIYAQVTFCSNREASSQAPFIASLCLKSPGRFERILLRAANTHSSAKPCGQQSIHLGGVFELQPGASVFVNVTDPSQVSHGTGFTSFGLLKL

B1: M08_40L_0105_0897 (peptide)
peptide: ELLLQNGTSSMVIFDPLAPGMLEDPYSTYAILRSGDPVHWHDGLKAWVLTGHRDCLYVLQNPDSFSCNCWAGEPSSEAHTDTYFETNENWIMVNSFNTGNYGGCPMNQMAAIDDFTALYNDHPSNSC
B2: M08_40L_0105_0907 (peptide)
peptide: ELFAFFSSRFFSVDDCCSHFLSSYDCSISDLMLERTPFTNFVALSSPNRFASNSC
B3: C02_40L_0604_1085 (peptide)
peptide: LVNGEYDLSVMYWTNDILDPDQKTTFVLGHDVNMTWDMLVNGEYDLSVMYWTNDILDPDQKTTFVLGHDVNMSNSC
B4: M09_40L_0105_0933 (peptide)
peptide: ELLSLYCRNHRVECFCCHTGGDRSELPSTHYSTSSGFMQVYDFFGVPFVLEYSN
B5: M09_40L_0104_0789 (peptide)
peptide: ELLLAEQAGTLKSELEAMPLGEYEHAARYVSEVECNWKTFAGNYSECDHCHANHQDWITDIELEESELEVNDYHWILHYTHDEDVEDEMRIHDEHEAKFYYFWPNFTGN
B6: C02_40L_0304_1021 (peptide)
peptide: PEDRFFWVSDIGWMMGPWTLIGNHTFAGTIFMYEGAPDYPNPDRFWEMIERH
B7: M09_40L_0104_0786 (peptide)
peptide: ELLPECAYTYGIDNILSEFGIKYFISEGKAIDYASPKSMYGTNTPIAAPSGVCAFGRDMDSSYQVWSDFMGYPGN
B8: M08_40L_0105_0899 (peptide)
peptide: ELLIPLKWSIRYYICYRGLAAYSGCFGGEALSEEALPFEERYYPDAERYLGYYSNSC
B9: M08_40L_0105_0915 (peptide)
peptide: ELLLGTPQNNAQAEVNLNINIGGPRYVGNYGPDFIYLDDYGFAVSWGWDYDVIRPGNSC
B10: M09_40L_0104_0790 (peptide)
peptide: ELLCSSNNRTYYFEEHCSCYYYTENDHNYYWDDHYNSYYVVQYNHKYYWDYHYDCYYVVEKQCN
B11: M09_40L_0104_0788 (peptide)
peptide: ELHCSCYYYTENDHNYYWDDHYNSYYVVQYNHKYYWDYHYDCYYVVEKHSN
B12: M09_40L_0205_1019 (peptide)
peptide: LIHEAIGDQLTCVFVDTGLLRKNEADQVVTLFRDHYNIPLVHVDAGDLFLGELAGVSDPETK
B13: C03_40L_0105_0955 (M09) (peptide)
peptide: PLFSENATRVELCLFDETGQTQTHCLDLPSYEGGIWYGYLPGIREGQTYGYRVHGPHAPEEGHRFNPN
B14: C02_40L_0804_1170 (M08) (peptide)
peptide: B13 peptide with V53A
B15: M09_40L_104_0791 (peptide)
peptide: ELLAYGKSTEDKQDFLLFHVNLDPHAAQTFEFEVPLWEFGLPDDASVEVEDLLNGNRFTWHGKWQWLELDPQTRPYAVWRLYAPGMPRCN
B16: M08_40L_0105_0913 (peptide)
peptide: ELRYYFEEHCSCYYYTENDHNCYWDDHYNSYYVVQYNHKYYWDYHYDCYYVVEKHSNSC
B17: M08_40L_0105_0898 (peptide)
peptide: ELHCSCYYYTENDHNYYWDDHYNSYYVVQYNHKYYWDYHYDCYYVVEKHSNSC
B18: M09_40L_0205_1012 (peptide)
peptide: LMFDRIVRIEAEGGKYGKGYVEAEFDIRPDLWFFDCHFIGDPVMPGCLGLDAMWQLVGFFQ
B19: M09_40L_0104_0784 (peptide)
peptide: ELLWIGINTNGMQWNGMQWQRMEWNGMEWHKPEWYGMEWNGMEWNGMEWKGIECN
B20: M09_40L_0105_0918 (peptide)
peptide: ELLFNHKYYWDYHYDCYYVVEKHCKYYYWNTYKEYNYWEKHKDDKCYWNYHYDCYYVVEKHCKYYYWNTYKEYNYWEKHKDSN
B21: M09_40L_0105_0919 (peptide)
peptide: ELRWEVWCDGMEVSQFTYFQQVGGHDCRPVSGELTYGLERLAMYVLGIDHVMDMPFNDPCGPTPLTYGN
B22: C02_40L_0604_1089 (peptide)
peptide: QTAKEIHFGFDQKPEDRFFWVSDIGWMMGPWTLIGNHTFAGTIFMYEGAPDYPNPDRFWEMIERH
B23: C02_40L_0304_1023 (peptide)
peptide: PELAREAAYKGANVYIRISGYSTQVNDQWIWTNRTNAWQNLMYTMSVNLAGYDGVFYYFGEGTVCNYDGNVIQQ
B24: M09_40L_0104_0781 (peptide)
peptide: ELLLERLNGVSVDWSNLYNSWNPDKETLYELDSDLHLADPAYVSTMDAWDTADVEEVQTEIAPWFGNSLSRNHSEPPADWADQYQYYSLWDIYGN
B25: C02_40L_0705_1112 (peptide)
peptide: LWDWIPFPGTEGIYFYRDWDADSDSPDGELFGGSLVNLELTLETYDPDDAAPWAWNLPSDLFQEQYENWSEFHKILQN
B26: M09_40L_0203_1004 (peptide)
peptide: LCEYEHAARYVSEVECNWKTFAGNYSECDHCHANHQDWITDIELAESELEVNDYHWILHCTHDEDVEDEMRIHDEHEAKFYYFWPNFN
B27: C02_40L_0605_1092 (peptide)
peptide: PGVDLGVQLLFQTVECGDGVSGVSWFDELSYVDFAIDAEKFQGPGQFQLTRVFGDYECPPVFLSGGDVPRCWVAVRGFEFFS
B28: C03_40L_0205_0991 (peptide)
peptide: LGADFDGEGTNFPLFSENATRVELCLFDETGQTQTHCLDLPSYEGGIWYGYLLGADFDGEGSNSC

Target: T1, CD40 ligand
Assay: phage display screen on CD40L

binding, binds:
B1
B2
B3
ELPKRSMIVAMSTVITLDFILFHTTSSLLGSFDSNSC [M08_40L_0105_0901]
B4
B5
B6
B7
B8
B9
B10
LGYPDLDLIVFPEYSTQGLNTAIWTYDEMLLTVDSPEIGVFYYFGEGTV [C02_40L_0204_0993]
B11
B12
HKEYNYWEKHKDDKYYYWNTYKEYNYWEKHKDDKCYWNEKDTKSNSC [M06_40L_0104_0825]
LYLGSLRALGIDPAAHDIRFVEDDWESPTLGAWGPGWEVWLN [C02_40L_0505_1073]
LFIGAPNLHWPDTINSWLEEDRVLFTCDSFGCHYCNEAMYDDLC [M09_40L_0204_1008]
LSDYECPPVFLSGGDVPRCWVAVRGFEFFGRDFRCGEV [M06_40L_0104_0829]
B13
B14
B15
B16
ELRTPGSSHNYCWDDHYNSYYVVQYNHKYYWDYHYDCYYVVEKHCNSC [M08_40L_0105_0900]
B17
ELRCYYYTENDHNYYWDDHYNSYYVVQYNHKYYWDYHYDCYYVVEKHCN [M09_40L_0105_0927]
ELLKHSDLFCELPDKFYDSAFLDRIHFYIPGWEVDIIRGEMFSNSN [M09_40L_0105_0920]
B18
B19
B20
B21
LWTSSSDLDDAAPWVWHLPNDLSQDPFEDWAELHRIPQKQSVR [M06_40L_0103_0801]
B22
B23
PGQFQLTRVFSDYECPPVFLSGGDVPRCWVAVRGFEFFGRDFRCGEV [M06_40L_0104_0840]
B24
B25
ELLWDVKTYVSDQDGTGWDLVEQYQNKYGMPNPDGTIGKTLWLDYIQCN [M09_40L_0104_0785]
B26
LMMDRITDISADGGLHGKGHVVAEFDIHPDLWFFECHFP [M06_40L_0103_0807]
B27
RLMHCLWEIIDNSVDEALGGYCDHIDVILHDDGSVEVRDNGR [C02_40L_0804_1146]
RFFKRDLNNFCYQADTFNAYCN [M07_40L_0104_0853]
B28
RWYLGNQTAADDYLLESYGEHPQFPWTTQHIPK [M07_40L_0104_0895]
RWYLGNQTAADDYLLESYGEHPQFPWTTQHILK [C03_40L_0105_0953]
